Laboratory results: PubChem BioAssay AID504793 (Drosophila RNAi Screening Center, 2011)

- Screen: 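Genes required for cells to halt at G2/M after double-strand DNA breaks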 (primary screen)
- Cell system: Drosophila S2R+ cells
- Knock-down reagent: long dsRNA against Drosophila genes, about 0.25 µg dsRNA per well
- Timing: 4 days of dsRNA, then 4 hours of drug before read-out
- Treatment: doxorubicin 0.5 µM for 4 hours to cause double-strand breaks, in cells also given a low, harmless dose of dsRNA against nbs to sensitise the assay
- Read-out: 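Per-well count of mitotic cells stained for phospho-histone H3 after doxorubicin exposure, used as mitotic index; counts are raw and not normalised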
- Direction: mitotic cells: higher = more cells in mitosis, weaker G2 arrest
- Rule for the call: 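Genes are called active only when high mitotic counts were reproduced with independent dsRNAs and mitosis was checked for delay without damage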
- Meaning of the calls: active = confirmed in follow-up tests; inactive = not confirmed
The deposit covers about 23,000 reagents; shown is a random part of those with a known target gene and a result. Over the whole deposit, 62 (0.27%) got an active call. 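Calls come from follow-up tests whose scores are not deposited, so confirmed genes may have low counts here; counts are not normalised per plate.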 The raw values are shown without normalisation. The numbers tell different reagents against one gene apart.

target,dsRNA no.,"mitotic cells, replicate 1",Outcome
CG7886 (GeneID 41775),1,5,inactive
MAGE (GeneID 40860),1,5,inactive
side-III (GeneID 4379844),1,7,inactive
side-III (GeneID 4379844),2,6,inactive
side-III (GeneID 4379844),3,6,inactive
side-III (GeneID 4379844),4,7,inactive
Osi2 (GeneID 40756),1,8,inactive
Osi2 (GeneID 40756),2,4,inactive
CG33235 (GeneID 2768871),1,11,inactive
CG5928 (GeneID 31539),1,8,inactive
CG5928 (GeneID 31539),2,1,inactive
CG42322 (GeneID 42455),1,7,inactive
CG42322 (GeneID 42455),2,6,inactive
CG42322 (GeneID 42455),3,10,inactive
CG14105 (GeneID 39507),1,3,inactive
EMC5 (GeneID 35159),1,3,inactive
Mon1 (GeneID 33689),1,2,inactive
Mon1 (GeneID 33689),2,7,inactive
CG10208 (GeneID 42814),1,14,inactive
Glys (GeneID 41823),1,3,inactive
Hex-t1 (GeneID 117364),1,11,inactive
Hex-t1 (GeneID 117364),2,8,inactive
CG6329 (GeneID 36529),1,2,inactive
CAH4 (GeneID 42965),1,3,inactive
CG5050 (GeneID 35048),1,,inactive
spo (GeneID 38631),1,4,inactive
Gem2 (GeneID 40087),1,6,inactive
antr (GeneID 246647),1,6,inactive
CG2267 (GeneID 43639),1,8,inactive
CG34459 (GeneID 5740101),1,5,inactive
CG7655 (GeneID 42128),1,5,inactive
cac (GeneID 32158),1,11,inactive
cac (GeneID 32158),2,4,inactive
cac (GeneID 32158),3,2,inactive
Pgi (GeneID 35886),1,7,inactive
CG17121 (GeneID 42721),1,11,inactive
Mvl (GeneID 42490),1,4,inactive
Csp (GeneID 40459),1,2,inactive
Liprin-gamma (GeneID 37552),1,6,inactive
CG14883 (GeneID 41997),1,5,inactive
CG15484 (GeneID 34682),1,15,inactive
CG15484 (GeneID 34682),2,14,inactive
pst (GeneID 38818),1,7,inactive
Nrx-1 (GeneID 42646),1,13,inactive
CG33290 (GeneID 2768993),1,5,inactive
CG33290 (GeneID 2768993),2,6,inactive
